In PMC10953580:
These are yes or no findings as the source states them, for the method shown. Some binding calls cover weakened binding; strength is not graded here. Sequences can lack the tags named with a protein.

Chains of the proteins cited; added tags and fusions are not shown. Residues count along the entry.
UniProt P37173, residues 23-567: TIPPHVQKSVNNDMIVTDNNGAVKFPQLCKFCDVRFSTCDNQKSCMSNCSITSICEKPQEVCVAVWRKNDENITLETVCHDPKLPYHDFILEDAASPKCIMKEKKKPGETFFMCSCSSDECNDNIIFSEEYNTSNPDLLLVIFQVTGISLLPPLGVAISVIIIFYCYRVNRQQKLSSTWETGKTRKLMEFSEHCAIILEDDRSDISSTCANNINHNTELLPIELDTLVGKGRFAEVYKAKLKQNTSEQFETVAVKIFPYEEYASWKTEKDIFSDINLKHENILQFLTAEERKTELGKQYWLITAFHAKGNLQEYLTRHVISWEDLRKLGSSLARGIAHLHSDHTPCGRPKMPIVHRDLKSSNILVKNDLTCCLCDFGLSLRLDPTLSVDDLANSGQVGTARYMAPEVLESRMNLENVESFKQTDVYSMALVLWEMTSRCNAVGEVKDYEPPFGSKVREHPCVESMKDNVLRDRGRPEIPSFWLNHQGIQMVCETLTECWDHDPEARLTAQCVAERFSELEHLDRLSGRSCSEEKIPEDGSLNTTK

Molecular target: T1, GST-TSP50 (UniProt Q9UI38)
T1 sequence: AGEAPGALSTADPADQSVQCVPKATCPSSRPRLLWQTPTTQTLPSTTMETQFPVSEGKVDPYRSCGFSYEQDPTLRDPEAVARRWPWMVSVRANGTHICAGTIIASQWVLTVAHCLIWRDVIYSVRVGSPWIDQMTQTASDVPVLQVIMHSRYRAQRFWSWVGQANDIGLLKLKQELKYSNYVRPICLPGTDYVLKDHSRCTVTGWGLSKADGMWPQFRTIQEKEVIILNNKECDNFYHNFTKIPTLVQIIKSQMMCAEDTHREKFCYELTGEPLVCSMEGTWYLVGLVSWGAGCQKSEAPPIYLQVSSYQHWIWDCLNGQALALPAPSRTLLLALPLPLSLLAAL
Assay: pull-down; GST-TSP50 as bait on gel suspension, incubated with Myc-TGFβRII overnight at 4 °C in GST pull-down binding buffer; blot with anti-TGFβRII and anti-GST; both purified

Myc-TGFβRII used in the GST pull-down (from UniProt P37173 23-567) (receptor)
binding: binds
